From publication PMC10158761, “Screening of an annexin‐A2‐targeted heptapeptide for pancreatic adenocarcinoma localization” (Molecular Oncology, 2022) come the findings set out here.

Chains of the proteins cited; added tags and fusions are not shown.
UniProt P07355: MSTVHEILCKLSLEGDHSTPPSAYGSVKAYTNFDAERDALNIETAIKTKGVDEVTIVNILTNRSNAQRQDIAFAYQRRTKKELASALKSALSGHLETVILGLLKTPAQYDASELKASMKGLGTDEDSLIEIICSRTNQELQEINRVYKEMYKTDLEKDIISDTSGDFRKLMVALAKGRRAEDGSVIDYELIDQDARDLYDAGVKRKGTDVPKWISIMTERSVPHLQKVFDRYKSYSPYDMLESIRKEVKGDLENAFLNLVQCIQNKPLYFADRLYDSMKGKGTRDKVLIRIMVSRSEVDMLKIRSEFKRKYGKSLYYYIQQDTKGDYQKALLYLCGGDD

No constants are given. Whether binding was seen depends on the method and setting. Some entries that bind do so weakly or less than the wild type.

The target of assay [1] is ANXA2 on pancreatic cells (human (endogenous in PANC-1 and HPDE6-C7)) (UniProt P07355). Description: fluorescence microscopy of cells; fluorescent images of FITC-YW7 on PANC-1 cells transfected with si-ANXA2, si-NC or blank; only the binder purified.
Assay [2] shares this target. Briefly: flow cytometry on cells; PANC-1 cells transfected with si-ANXA2, si-NC or blank, in suspension; 20 μM FITC-YW7, 37 °C, 15 min; washed with PBS; only the binder purified. In general terms: In flow cytometry, cells or beads pass a laser one at a time.
Assay [3] addresses T1, GST-fused ANXA2 recombinant protein (UniProt P07355 1-339).
T1 construct: product of 62 kD with GST; No cleavage of GST is described; The size of 62 kD would fit whole ANXA2 (36 kD) plus GST; also called GST-ANXA2; annexin A2; source: E. coli BL21 (DE3), purified (GST tag purification resin)
Briefly: affinity column with LC/MS detection; 0.7 mg purified recombinant ANXA2 coupled to CNBr-activated Sepharose; 1 mg YW7 added, 1 h at 4 °C; washed with 50 mM Tris-HCl pH 8.0 and 50 mM glycine-0.5 M NaCl pH 4.0; eluents analysed by UPLC-QTOF/MS; both purified.

Regarding YWRGVYN (FITC on the N-terminus via a spacer of 6-aminocaproic acid) [FITC-labeled YW7], the binding result in assay [1] and in assay [2] was “binds” in each case.
As to YWRGVYN [YW7 peptide], in assay [3], the binding entry is given as “binds”.
